From publication PMC7340540, “Crystal structures and calorimetry reveal catalytically relevant binding mode of coproporphyrin and coproheme in coproporphyrin ferrochelatase” (The FEBS journal, 2019)
No constants are given. Whether binding was seen depends on the method and setting.

Sequences of proteins named here, by UniProt entry; tags and fusion partners are left off.
UniProt Q8Y565: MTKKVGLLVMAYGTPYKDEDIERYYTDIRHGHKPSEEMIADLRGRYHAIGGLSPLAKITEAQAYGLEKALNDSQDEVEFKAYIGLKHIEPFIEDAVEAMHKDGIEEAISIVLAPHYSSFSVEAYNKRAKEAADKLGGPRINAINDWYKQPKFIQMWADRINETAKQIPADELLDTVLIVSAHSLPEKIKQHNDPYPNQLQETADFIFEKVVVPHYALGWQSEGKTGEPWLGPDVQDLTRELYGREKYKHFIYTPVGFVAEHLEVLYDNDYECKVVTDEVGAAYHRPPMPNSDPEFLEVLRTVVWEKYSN

Molecular target: coproporphyrin ferrochelatase from Listeria monocytogenes (LmCpfC) (Listeria monocytogenes) (UniProt Q8Y565)
Assay: SEC-MALS; HPLC-SEC-MALS, Superdex 200 10/300 GL, 1 x PBS plus 200 mM NaCl, flow 0.75 mL/min, 50 μg protein injected; apo-, coproporphyrin III- and coproheme-LmCpfC gave identical elution profiles; both purified

“coproporphyrin ferrochelatase from Listeria monocytogenes (LmCpfC) (from UniProt Q8Y565 1-309) (enzyme)” was tested, and the binding was “no binding (tested: 50 μg injected)”.
